According to the supplement of paper PMC10849652:
The other results are listed elsewhere or left out.

Amino acid sequences for entries named in this document (tags omitted). A change or cut given only in a name is not applied to a line headed by its entry.
UniProt P07478, whole entry, looked up: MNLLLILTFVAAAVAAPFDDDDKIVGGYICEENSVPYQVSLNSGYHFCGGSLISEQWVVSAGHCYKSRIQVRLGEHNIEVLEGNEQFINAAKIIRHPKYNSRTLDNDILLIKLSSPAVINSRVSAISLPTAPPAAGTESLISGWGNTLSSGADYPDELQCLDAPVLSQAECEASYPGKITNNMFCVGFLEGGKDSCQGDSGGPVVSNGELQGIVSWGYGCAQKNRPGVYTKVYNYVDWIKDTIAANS
UniProt Q86Y79: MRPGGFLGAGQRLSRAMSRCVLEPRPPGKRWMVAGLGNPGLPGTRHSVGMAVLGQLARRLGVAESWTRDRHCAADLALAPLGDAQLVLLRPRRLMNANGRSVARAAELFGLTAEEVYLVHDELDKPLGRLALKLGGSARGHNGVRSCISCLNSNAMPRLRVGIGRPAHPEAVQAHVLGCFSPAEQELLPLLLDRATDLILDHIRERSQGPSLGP
UniProt O75365, whole entry, looked up: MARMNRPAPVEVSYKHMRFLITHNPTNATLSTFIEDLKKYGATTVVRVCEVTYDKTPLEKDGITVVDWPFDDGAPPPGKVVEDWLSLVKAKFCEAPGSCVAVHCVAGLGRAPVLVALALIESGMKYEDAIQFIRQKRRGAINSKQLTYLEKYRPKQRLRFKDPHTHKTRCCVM
UniProt P40306: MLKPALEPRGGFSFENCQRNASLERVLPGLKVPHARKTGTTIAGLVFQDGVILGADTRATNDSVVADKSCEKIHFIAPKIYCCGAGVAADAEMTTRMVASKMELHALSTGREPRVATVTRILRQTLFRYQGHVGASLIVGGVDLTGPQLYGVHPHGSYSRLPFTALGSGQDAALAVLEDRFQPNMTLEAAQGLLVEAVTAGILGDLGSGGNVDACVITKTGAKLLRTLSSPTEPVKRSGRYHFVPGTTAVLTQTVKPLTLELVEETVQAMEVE
UniProt A2A3K4: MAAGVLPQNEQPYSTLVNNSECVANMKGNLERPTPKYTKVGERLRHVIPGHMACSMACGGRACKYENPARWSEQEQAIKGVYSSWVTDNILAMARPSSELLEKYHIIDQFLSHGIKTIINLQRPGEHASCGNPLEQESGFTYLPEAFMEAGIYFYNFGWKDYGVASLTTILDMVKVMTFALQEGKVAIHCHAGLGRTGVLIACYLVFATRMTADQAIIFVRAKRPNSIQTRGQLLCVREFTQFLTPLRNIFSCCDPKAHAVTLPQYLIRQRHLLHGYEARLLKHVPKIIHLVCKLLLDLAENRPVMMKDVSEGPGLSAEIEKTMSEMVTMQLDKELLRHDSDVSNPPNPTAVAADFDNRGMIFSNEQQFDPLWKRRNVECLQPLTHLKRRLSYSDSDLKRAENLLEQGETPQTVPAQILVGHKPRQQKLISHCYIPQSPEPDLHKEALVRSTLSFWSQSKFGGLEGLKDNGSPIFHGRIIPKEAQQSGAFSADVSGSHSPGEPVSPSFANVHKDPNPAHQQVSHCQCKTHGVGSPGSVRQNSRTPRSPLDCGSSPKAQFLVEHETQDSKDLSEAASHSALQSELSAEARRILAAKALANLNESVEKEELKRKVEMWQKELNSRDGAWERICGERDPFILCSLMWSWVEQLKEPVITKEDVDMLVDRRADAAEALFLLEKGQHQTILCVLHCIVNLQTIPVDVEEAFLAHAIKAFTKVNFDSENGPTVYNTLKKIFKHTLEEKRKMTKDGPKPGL
UniProt Q569H4: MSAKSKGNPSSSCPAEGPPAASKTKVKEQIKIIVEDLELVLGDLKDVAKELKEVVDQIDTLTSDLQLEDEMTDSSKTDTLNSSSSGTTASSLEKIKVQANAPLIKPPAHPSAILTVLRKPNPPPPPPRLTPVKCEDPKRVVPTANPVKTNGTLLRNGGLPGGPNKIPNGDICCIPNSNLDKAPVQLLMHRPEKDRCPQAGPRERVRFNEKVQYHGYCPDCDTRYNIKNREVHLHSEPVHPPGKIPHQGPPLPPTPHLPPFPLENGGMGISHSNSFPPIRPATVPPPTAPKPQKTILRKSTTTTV
UniProt Q16378: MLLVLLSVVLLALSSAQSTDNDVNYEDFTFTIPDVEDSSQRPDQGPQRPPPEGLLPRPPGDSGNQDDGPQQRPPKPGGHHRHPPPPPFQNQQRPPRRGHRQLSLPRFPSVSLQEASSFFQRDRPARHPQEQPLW
UniProt Q86YD1: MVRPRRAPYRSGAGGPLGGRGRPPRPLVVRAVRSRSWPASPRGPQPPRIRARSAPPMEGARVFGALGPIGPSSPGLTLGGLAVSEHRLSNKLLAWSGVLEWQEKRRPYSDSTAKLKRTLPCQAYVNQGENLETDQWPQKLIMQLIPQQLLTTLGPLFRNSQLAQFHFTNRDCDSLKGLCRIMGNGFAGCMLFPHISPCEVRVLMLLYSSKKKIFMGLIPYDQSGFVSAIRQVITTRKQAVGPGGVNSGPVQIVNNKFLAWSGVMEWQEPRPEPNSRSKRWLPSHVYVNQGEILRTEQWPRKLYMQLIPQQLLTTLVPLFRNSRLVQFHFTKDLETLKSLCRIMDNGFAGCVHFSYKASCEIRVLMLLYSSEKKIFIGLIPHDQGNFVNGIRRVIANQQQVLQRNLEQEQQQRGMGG
UniProt P07602: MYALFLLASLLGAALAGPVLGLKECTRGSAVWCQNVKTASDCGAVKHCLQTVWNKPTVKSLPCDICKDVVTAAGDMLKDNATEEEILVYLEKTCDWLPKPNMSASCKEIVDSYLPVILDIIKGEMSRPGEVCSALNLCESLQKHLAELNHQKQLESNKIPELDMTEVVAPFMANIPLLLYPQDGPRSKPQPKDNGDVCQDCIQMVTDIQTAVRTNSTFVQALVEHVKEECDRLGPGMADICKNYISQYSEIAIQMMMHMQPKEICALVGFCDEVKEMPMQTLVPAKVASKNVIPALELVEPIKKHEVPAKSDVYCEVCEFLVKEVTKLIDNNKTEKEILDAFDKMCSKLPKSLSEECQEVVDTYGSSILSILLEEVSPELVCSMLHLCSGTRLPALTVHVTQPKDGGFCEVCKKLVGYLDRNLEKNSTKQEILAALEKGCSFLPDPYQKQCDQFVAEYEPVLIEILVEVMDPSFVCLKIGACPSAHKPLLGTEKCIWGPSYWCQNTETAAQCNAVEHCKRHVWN
UniProt P43115: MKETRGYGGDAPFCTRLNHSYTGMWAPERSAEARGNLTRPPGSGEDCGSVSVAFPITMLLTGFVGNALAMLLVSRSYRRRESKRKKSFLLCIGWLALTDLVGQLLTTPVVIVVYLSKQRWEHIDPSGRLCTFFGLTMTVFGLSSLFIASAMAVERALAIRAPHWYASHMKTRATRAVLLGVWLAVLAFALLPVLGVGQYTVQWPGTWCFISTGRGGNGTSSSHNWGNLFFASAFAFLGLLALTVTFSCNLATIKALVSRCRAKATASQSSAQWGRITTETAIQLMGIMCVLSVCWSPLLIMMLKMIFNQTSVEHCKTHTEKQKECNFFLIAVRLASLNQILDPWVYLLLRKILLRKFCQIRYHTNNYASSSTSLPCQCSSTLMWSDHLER
UniProt Q16651: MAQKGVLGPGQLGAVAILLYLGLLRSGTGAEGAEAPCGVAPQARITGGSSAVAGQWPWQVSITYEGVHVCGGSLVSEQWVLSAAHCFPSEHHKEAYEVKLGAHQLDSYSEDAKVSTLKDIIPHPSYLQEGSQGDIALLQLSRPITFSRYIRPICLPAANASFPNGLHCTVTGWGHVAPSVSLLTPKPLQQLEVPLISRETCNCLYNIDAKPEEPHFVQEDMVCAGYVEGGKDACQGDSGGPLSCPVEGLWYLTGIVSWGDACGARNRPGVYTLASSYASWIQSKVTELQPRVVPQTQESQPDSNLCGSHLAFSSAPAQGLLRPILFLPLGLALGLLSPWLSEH
UniProt Q9ULL5: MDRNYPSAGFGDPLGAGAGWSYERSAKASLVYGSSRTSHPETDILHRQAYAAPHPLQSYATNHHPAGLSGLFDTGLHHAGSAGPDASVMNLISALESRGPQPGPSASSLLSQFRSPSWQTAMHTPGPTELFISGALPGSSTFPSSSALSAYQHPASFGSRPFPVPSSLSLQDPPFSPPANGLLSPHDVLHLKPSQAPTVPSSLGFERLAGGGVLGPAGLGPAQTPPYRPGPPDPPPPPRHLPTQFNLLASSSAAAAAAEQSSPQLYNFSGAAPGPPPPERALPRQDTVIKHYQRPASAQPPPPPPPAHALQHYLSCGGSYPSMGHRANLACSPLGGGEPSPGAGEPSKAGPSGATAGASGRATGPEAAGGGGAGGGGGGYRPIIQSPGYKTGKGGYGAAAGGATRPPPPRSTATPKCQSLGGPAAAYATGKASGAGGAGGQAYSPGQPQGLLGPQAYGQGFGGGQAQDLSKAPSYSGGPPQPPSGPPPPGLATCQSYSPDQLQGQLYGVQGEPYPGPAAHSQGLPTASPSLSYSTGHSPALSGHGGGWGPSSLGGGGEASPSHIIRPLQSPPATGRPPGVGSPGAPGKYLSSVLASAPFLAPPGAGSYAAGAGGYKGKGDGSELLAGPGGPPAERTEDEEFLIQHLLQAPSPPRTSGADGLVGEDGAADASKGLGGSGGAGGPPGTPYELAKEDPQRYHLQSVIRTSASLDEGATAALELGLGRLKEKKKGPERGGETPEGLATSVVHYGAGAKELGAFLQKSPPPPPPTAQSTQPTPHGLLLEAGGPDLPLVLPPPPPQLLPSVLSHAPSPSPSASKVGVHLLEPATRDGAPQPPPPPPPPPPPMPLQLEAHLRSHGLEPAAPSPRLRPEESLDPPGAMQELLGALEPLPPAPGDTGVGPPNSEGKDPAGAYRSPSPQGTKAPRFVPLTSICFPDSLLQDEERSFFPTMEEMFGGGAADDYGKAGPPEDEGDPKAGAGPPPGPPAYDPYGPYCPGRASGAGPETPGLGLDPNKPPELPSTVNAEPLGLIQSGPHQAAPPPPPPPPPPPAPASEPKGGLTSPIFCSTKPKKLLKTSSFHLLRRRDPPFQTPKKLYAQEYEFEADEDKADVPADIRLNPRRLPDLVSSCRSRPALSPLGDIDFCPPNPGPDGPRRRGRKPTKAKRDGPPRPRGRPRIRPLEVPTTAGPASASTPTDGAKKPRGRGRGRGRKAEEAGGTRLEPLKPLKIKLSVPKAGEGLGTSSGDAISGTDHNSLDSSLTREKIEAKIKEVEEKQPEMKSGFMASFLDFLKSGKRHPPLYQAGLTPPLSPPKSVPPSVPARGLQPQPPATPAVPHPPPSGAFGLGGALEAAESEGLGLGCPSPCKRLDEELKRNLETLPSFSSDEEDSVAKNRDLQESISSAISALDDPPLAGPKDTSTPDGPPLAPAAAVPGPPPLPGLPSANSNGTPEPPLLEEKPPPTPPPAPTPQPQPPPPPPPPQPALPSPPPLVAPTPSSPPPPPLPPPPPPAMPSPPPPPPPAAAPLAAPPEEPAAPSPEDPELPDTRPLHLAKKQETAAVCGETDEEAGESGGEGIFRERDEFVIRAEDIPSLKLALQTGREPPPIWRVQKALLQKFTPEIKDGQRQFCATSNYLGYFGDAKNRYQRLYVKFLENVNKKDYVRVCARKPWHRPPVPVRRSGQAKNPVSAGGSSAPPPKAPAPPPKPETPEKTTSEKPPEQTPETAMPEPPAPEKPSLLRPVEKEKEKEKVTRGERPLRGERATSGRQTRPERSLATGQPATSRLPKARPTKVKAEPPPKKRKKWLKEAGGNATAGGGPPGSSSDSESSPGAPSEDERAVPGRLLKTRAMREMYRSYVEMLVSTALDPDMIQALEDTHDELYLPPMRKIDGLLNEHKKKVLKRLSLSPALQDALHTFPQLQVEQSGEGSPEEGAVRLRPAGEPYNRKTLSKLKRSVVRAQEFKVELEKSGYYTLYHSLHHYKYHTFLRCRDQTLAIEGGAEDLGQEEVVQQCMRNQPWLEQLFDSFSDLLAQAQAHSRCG
UniProt Q9Y6M0: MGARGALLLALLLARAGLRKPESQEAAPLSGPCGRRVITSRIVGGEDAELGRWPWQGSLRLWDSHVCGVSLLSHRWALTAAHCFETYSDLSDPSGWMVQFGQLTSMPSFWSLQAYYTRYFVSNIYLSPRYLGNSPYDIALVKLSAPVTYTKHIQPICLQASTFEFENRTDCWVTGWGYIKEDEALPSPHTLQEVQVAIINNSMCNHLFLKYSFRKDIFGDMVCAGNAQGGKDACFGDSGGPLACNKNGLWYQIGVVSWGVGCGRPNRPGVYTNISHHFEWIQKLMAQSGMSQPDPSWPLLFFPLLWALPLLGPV
UniProt P28062: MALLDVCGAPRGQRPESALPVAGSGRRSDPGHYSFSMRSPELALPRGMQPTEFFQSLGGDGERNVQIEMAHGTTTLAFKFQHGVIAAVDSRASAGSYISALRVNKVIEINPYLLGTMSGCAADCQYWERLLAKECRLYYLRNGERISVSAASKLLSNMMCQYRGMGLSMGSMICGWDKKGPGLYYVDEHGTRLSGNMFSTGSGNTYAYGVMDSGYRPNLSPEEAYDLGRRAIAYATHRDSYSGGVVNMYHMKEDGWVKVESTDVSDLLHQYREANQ

Key:
Assay in all cases: log2 fold change, soluble protein after heating vs DMSO (PISA); higher = thermal stabilisation; K562 lysate, 10 uM; active = over 0.2 and 3.5 SD of the protein, either way, in both replicates (recomputed)
[1] = compound: Cc1cn(-c2cc(NC(=O)c3ccc(C)c(Nc4nccc(-c5cccnc5)n4)c3)cc(C(F)(F)F)c2)cn1 [nilotinib]
In short: (§1)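 Following dounce homogenisation of K562 pellets in PBS pH 7.4 with 1 mM MgCl2, crude extract at 1 mg/mL protein was incubated for 30 min with 10 μM compound. Aliquots were then heated for 3 min over 48°C-58°C and pooled, NP-40 was added to 0.5% at 4°C, and soluble protein was recovered as the supernatant at 21,000xg for 90 min. Channel-sum-equalised TMTpro 16plex LC-MS/MS quantified this protein. Each value, from duplicates, is a log-two fold change in thermal stability relative to solvent controls.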

[2] = compound: Cc1nc(Nc2n[nH]c3c2CN(C(=O)N[C@H](CN(C)C)c2ccccc2)C3(C)C)c2sccc2n1
In short: as §1

[3] = compound: Cc1ncc(-c2ccnc(Nc3ccc(S(C)(=O)=O)cc3)n2)n1C(C)C
In short: as §1

[4] = compound: Cn1cc(CNCC2CCN(c3ncc(C(=O)NO)cn3)CC2)c2ccccc21 [quisinostat]
In short: as §1

[5] = compound: Cn1cncc1[C@@](N)(c1ccc(Cl)cc1)c1ccc2c(c1)c(-c1cccc(Cl)c1)cc(=O)n2C [tipifarnib]
In short: as §1

[6] = compound: NC(=O)Nc1cc(-c2cccc(F)c2)sc1C(=O)N[C@H]1CCCNC1
In short: as §1

[7] = compound: NC(=O)c1cnc(N[C@@H]2CCCC[C@@H]2N)nc1Nc1cccc(-n2nccn2)c1
In short: as §1

[8] = compound: NC1(c2ccc(-c3nc4ccn5c(=O)[nH]nc5c4cc3-c3ccccc3)cc2)CCC1
In short: as §1

[9] = compound: O=C(CCCCCCC(=O)Nc1ccccc1)NO [vorinostat]
In short: as §1

[10] = compound: O=C(O)c1ccc2c(c1)nc(Nc1cccc(Cl)c1)c1ccncc12 [silmitasertib]
In short: as §1

[11] = compound: O=C1NC(=O)C(c2cnc3ccccn23)=C1c1cn2c3c(cc(F)cc13)CN(C(=O)N1CCCCC1)CC2
In short: as §1

[12] = compound: Cc1nc(Nc2ncc(C(=O)Nc3c(C)cccc3Cl)s2)cc(N2CCN(CCO)CC2)n1 [dasatinib]
In short: as §1

[13] = compound: Cn1cc(-c2ccc3c(c2)CCN3C(=O)Cc2cccc(C(F)(F)F)c2)c2c(N)ncnc21
In short: as §1

[14] = compound: NCC(=O)Nc1ccc(-n2nc(C(F)(F)F)cc2-c2ccc3c(ccc4ccccc43)c2)cc1
In short: as §1

[15] = compound: c1cn2cc(-c3ccc4cn[nH]c4c3)nc(Nc3ccc(N4CCOCC4)cc3)c2n1 [entospletinib]
In short: as §1

Measured: log2 fold change

PSMA7 (UniProt H0Y586)
inactive: [1] 0.059 | [2] 0.087 | [3] 0.064 | [4] -0.011 | [5] -0.11 | [6] 0.069 | [7] -0.044 | [8] -0.426 | [9] 0.015 | [10] -0.167 | [11] 0.057

PRSS2 (UniProt P07478)
inactive: [12] -0.055 | [13] 0.305 | [7] 0.263

PSMB2, A0A087WVV1
inactive: [4] -0.144 | [6] -0.271 | [8] -0.063 | [14] 0.023 | [9] 0.051 | [10] 0.071 | [11] 0.172 | [15] -0.069

PTMS (UniProt F5GXR3)
inactive: [14] -0.03

PTRH1 (UniProt Q86Y79)
inactive: [4] 0.015 | [6] -0.018 | [8] 0.176 | [14] 0.148 | [9] -0.342 | [10] 0.112 | [11] -0.09 | [15] -0.048

PTP4A3 (UniProt O75365)
inactive: [12] -0.078 | [13] -0.037 | [4] 0.22 | [6] 0.128 | [7] 0.057 | [8] 0.026 | [14] -0.355 | [9] -0.324 | [10] 0.17 | [11] 0.375 | [15] -0.029

PSMB10 (UniProt P40306)
inactive: [12] 0.017 | [13] 0.055 | [4] -0.033 | [6] -0.008 | [7] -0.038 | [14] 0.015 | [11] 0.012 | [15] 0.059

PSME3 (UniProt K7EMD0)
inactive: [1] -0.074 | [2] 0.114 | [3] 0.012 | [5] 0.043 | [7] -0.054

PTBP1, A0A0U1RRM4
inactive: [7] -0.225

PTPDC1 isoform 2 (UniProt A2A3K4)
inactive: [1] -0.422 | [2] 0.246 | [3] -0.305 | [4] -0.019 | [5] -0.206 | [6] -0.051 | [8] -0.059 | [14] -0.527 | [9] 0.114 | [10] 0.013 | [11] 0.001

PRRC2B (UniProt H0Y412)
inactive: [8] 0.156 | [9] -0.045 | [10] -0.083

PRR16 (UniProt Q569H4)
inactive: [4] -0.011 | [6] 0.008 | [11] 0.107

PSMC3 (UniProt E9PLG2)
inactive: [14] 0.047

PTK2 isoform 2 (UniProt Q05397)
inactive: [12] 0.014 | [13] 0.102 | [7] 0.034 | [8] -0.168 | [9] -0.056 | [10] 0.046 | [15] 0.007

PRR4 (UniProt Q16378)
inactive: [1] 0.047 | [2] -0.145 | [3] -0.027 | [5] 0.05 | [7] 0.032 | [8] 0.012 | [14] 0.009 | [9] 0.229 | [10] -0.176 | [15] 0.302

PTPA (UniProt Q5T949)
inactive: [1] -0.098 | [2] 0.023 | [3] 0.005 | [5] -0.173 | [7] 0.017

PTPRF (UniProt P10586)
inactive: [4] 0.156 | [6] -0.2 | [14] -0.356 | [11] -0.052

PTOV1 (UniProt Q86YD1)
inactive: [12] -0.273 | [13] 0.124 | [4] 0.009 | [6] 0.143 | [14] 0.038 | [11] -0.139

PSMC5 (UniProt J3KRP2)
inactive: [1] -0.1 | [2] 0.104 | [3] 0.148 | [5] 0.039 | [7] -0.078

PSMF1 (UniProt Q5QPM7)
inactive: [4] -0.046 | [6] 0.027 | [14] 0.009 | [11] -0.023 | [15] -0.118

PSAP isoform 2 (UniProt P07602)
inactive: [8] -0.146 | [9] 0.406 | [10] 0.124

PTPA (UniProt A6PVN8)
inactive: [15] 0.212

PSMA3 (UniProt H0YJ03)
inactive: [12] -0.077 | [13] -0.104 | [4] -0.189 | [6] 0.082 | [7] 0.01 | [8] 0.06 | [14] 0.374 | [9] -0.056 | [10] -0.172 | [11] 0.005 | [15] 0.09

PSTK (UniProt H7BYY4)
inactive: [12] -0.065 | [13] 0.248

PRSS50 (UniProt Q9UI38)
inactive: [12] 0.102 | [13] -0.029 | [7] 0.038 | [15] -0.001

PTPN14 (UniProt Q15678)
inactive: [4] -0.263 | [6] -0.001 | [11] 0.1 | [15] 0.089

PWWP2B (UniProt Q6NUJ5)
inactive: [12] 0.194 | [13] 0.041 | [7] 0.025

PTGER3 isoform 2 (UniProt P43115)
inactive: [4] 0.028 | [6] 0.191 | [7] -0.035 | [11] -0.03

PRSS8 (UniProt Q16651)
inactive: [12] 0.058 | [13] 0.035 | [4] -0.205 | [6] 0.06 | [8] 0.071 | [9] 0.018 | [10] -0.043 | [11] 0.084

PRR12 (UniProt Q9ULL5)
inactive: [4] -0.176 | [6] 0.056 | [11] -0.008

PSMD1, A0A087WW66
inactive: [7] -0.023

PRSS21 (UniProt Q9Y6M0)
inactive: [12] -0.016 | [13] -0.011 | [4] -0.021 | [6] 0 | [7] 0.041 | [8] -0.041 | [14] -0.021 | [9] 0.027 | [10] 0.038 | [11] -0.003 | [15] 0.019

PTPA (UniProt Q5T948)
inactive: [7] -0.051 | [14] -0.012

PSMB8 (UniProt P28062)
inactive: [12] -0.014 | [13] 0.085 | [4] -0.119 | [6] 0.079 | [7] -0.029 | [8] 0.053 | [9] 0.067 | [10] -0.043 | [11] 0.13 | [15] 0.035

PSIP1 (UniProt V9GYT7)
inactive: [4] -0.165 | [6] -0.039 | [8] 0.003 | [9] 0.197 | [10] -0.084 | [11] 0.022

PTPN11, A0A0U1RRI0
inactive: [7] -0.081

Quoted from the listing (2 entries):
PSIP1 (UniProt V9GYT7)
inactive: [4] -0.165 | [6] -0.039 | [8] 0.003 | [9] 0.197 | [10] -0.084 | [11] 0.022

PTPN11, A0A0U1RRI0
inactive: [7] -0.081
